From article PMC4062820
No constants are given. Whether binding was seen depends on the method and setting. Some results given as binding are weak or reduced against the parent protein; the word gives no strength.

Chains of the proteins cited; added tags and fusions are not shown.
UniProt P51608: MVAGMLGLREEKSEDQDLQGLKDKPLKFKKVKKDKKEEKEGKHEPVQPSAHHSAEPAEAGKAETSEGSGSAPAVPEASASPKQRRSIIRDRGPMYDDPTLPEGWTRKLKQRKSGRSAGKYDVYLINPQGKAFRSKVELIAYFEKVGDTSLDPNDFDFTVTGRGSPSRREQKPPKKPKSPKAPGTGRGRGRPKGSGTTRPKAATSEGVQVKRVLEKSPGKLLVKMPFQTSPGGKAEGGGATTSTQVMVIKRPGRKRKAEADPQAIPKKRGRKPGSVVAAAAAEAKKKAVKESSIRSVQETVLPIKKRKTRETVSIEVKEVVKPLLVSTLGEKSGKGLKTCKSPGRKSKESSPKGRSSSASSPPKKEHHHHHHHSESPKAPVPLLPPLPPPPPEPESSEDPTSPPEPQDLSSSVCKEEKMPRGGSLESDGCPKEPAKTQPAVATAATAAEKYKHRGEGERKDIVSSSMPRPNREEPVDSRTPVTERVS
UniProt O75530: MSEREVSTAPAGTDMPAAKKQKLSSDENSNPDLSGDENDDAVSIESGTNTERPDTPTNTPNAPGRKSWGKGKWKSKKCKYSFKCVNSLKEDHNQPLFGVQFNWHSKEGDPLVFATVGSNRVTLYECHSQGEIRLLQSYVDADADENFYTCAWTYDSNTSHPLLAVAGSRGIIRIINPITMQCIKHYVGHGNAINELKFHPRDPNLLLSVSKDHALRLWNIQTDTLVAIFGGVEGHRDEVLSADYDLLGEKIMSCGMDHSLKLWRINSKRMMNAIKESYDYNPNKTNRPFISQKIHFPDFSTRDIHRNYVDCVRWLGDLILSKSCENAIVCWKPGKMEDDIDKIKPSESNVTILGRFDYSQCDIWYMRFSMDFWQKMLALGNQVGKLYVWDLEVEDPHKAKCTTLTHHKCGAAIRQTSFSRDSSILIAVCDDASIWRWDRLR
UniProt Q96KQ7: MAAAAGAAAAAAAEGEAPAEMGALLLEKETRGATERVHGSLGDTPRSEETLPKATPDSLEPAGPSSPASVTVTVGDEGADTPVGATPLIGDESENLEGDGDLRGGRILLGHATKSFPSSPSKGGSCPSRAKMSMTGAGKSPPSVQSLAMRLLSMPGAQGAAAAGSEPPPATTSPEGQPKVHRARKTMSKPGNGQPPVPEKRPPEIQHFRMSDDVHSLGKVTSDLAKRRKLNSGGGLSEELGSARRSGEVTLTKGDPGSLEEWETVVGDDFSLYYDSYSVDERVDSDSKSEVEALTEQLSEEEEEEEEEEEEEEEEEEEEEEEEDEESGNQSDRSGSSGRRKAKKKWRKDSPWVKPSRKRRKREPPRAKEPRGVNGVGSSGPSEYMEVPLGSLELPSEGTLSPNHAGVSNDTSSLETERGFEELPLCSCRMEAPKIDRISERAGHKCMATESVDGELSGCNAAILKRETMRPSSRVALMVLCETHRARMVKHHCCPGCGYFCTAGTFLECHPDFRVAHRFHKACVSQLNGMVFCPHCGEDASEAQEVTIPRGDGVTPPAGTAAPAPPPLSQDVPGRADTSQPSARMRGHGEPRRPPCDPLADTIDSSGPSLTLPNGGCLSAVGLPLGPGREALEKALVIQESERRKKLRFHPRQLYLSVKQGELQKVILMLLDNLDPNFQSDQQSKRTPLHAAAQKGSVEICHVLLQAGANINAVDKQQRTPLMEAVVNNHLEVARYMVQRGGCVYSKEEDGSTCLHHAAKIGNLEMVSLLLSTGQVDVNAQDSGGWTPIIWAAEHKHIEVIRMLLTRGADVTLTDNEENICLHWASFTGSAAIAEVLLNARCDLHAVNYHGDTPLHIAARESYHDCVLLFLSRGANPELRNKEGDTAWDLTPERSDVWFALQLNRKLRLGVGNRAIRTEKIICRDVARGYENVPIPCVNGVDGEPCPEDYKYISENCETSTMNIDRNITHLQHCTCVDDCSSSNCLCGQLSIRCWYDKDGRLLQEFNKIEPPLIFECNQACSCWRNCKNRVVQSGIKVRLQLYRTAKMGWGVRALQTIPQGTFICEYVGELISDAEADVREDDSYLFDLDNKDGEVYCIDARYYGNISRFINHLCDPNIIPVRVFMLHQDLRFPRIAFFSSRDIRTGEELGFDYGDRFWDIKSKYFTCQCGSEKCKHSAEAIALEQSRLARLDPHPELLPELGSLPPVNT
UniProt O75376: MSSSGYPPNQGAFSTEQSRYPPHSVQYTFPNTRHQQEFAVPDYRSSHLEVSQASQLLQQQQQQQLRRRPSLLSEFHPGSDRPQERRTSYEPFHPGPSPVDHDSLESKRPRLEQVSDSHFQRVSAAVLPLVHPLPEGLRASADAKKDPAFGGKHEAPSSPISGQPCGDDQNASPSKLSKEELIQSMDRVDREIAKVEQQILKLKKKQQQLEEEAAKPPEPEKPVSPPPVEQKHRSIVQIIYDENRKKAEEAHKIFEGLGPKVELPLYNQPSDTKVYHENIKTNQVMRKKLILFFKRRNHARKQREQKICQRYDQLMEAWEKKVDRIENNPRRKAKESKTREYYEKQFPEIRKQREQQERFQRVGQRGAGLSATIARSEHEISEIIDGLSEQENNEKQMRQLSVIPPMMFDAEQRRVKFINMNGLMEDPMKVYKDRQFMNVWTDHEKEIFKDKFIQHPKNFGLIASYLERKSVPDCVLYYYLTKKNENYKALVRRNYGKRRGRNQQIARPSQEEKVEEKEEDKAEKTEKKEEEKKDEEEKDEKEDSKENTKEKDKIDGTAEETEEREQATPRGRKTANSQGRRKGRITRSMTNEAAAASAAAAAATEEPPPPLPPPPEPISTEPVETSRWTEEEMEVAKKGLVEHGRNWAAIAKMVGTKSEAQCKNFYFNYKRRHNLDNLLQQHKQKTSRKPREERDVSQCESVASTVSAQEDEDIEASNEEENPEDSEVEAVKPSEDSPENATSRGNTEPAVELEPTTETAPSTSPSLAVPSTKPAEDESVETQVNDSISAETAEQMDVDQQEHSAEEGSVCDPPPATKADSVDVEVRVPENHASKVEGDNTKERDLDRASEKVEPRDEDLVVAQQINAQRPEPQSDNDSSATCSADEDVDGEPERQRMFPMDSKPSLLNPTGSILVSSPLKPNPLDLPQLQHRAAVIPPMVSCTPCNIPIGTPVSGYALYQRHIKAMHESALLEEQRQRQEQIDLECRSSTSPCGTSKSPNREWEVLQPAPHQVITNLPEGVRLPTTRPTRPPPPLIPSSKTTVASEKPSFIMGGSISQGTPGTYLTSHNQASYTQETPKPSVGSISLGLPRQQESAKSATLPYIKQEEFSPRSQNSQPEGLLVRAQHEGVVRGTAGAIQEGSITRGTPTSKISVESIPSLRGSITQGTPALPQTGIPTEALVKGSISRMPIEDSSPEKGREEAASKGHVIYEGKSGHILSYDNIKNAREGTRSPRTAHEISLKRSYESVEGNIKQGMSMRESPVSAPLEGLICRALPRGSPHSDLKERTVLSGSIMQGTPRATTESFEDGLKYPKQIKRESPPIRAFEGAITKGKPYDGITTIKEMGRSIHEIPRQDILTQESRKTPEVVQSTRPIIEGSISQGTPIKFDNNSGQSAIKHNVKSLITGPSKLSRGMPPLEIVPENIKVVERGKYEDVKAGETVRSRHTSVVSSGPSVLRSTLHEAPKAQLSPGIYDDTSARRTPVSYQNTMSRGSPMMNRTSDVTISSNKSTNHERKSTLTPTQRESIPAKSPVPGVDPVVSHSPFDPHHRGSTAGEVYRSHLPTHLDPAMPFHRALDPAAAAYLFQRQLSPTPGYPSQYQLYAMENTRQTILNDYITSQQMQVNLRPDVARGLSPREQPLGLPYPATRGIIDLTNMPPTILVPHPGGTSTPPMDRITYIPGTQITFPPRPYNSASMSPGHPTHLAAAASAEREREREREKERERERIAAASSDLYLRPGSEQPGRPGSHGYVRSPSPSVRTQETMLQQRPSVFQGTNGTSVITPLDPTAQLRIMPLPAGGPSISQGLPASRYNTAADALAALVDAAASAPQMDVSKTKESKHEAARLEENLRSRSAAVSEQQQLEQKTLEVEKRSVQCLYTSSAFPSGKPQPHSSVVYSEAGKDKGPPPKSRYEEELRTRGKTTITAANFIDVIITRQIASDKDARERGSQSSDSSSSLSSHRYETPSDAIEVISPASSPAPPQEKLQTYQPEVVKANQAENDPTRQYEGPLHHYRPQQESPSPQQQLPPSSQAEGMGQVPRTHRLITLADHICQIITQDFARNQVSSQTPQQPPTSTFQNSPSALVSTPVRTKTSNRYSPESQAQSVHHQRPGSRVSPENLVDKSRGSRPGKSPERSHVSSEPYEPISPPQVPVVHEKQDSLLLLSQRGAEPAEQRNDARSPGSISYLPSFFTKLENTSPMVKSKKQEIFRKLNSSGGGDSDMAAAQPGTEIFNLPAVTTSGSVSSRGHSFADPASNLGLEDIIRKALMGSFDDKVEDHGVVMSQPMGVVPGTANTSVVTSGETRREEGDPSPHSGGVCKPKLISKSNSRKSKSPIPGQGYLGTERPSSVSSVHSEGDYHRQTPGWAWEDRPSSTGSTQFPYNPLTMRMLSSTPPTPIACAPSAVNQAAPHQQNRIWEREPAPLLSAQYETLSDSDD
UniProt Q9UKL0: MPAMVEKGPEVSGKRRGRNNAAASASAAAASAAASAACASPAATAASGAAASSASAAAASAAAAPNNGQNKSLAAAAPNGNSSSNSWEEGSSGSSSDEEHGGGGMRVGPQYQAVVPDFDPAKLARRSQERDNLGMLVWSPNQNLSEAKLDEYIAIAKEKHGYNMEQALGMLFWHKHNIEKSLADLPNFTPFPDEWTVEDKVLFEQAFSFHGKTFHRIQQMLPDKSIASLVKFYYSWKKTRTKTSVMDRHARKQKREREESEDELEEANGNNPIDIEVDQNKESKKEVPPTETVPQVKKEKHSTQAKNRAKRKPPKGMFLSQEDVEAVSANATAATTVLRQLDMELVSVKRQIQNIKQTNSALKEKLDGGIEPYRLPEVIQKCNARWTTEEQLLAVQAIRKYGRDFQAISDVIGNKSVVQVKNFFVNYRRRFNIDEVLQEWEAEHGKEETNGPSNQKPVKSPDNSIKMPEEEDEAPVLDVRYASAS

Key:
[1] = target: methyl CpG binding protein 2 (human (endogenous in lung fibroblasts of IPF patients)) (UniProt P51608); assay: Re-ChIP (sequential chromatin immunoprecipitation); Re-ChIP-IT Express Kit; formaldehyde cross-linked, sonicated chromatin of confluent, 24 h serum-starved unstimulated F-IPFs; first immunoprecipitation with an antibody to one protein, eluted and desalted chromatin precipitated again with an antibody to the second; read-out: real-time PCR of COX-2 promoter DNA (-299/+6), normalized to input
[2] = target: embryonic ectoderm development protein (human (endogenous in lung fibroblasts of IPF patients)) (UniProt O75530); assay: as above

binding [1] | binding [2] | Substance
binds |  | G9a (from UniProt Q96KQ7 1-1210) (enzyme)
 | binds | nuclear receptor corepressor (from UniProt O75376 1-2440)
binds | binds | co-RE1-silencing transcription factor (from UniProt Q9UKL0 1-485)
